# This is one part of the list. Shown are side measurements of this screen, not its main read-out; they come without a call. Compounds called inactive in the main read-out are mostly missing here. The note in brackets gives the kind of curve behind each potency; many fits are weak.
# Experiment: qHTS Assay for Modulators of Lamin A Splicing
# Conditions: HeLa LMNA splicing GFP/RFP minigene ratio, 48 h
# Excerpt: NCGC Assay Overview: Hutchinson-Gilford Progeria Syndrome (HGPS) is a pediatric premature aging disease caused by a spontaneous mutation in the lamin A/C (LMNA) gene. The mutation activates a cryptic splice site in the LMNA pre-mRNA which results in production of a pre-lamin A protein that cannot be processed properly. The mutant protein accumulates in the nucleus and negatively affects numerous cellular functions. Correction of the splicing defect in HGPS patient cells using a targeted oligonucleotide (exo11) leads to reversal of the cellular disease phenotypes. To identify small molecule modulators of aberrant LMNA splicing, a homogenous assay was constructed in HeLa cells that used a GFP containing minigene to report on correction of aberrant splicing in lamin A and a RFP (DsRed2) to report on cell viability, uniformity and nonspecific effects on the assay signal. This assay was adapted to laser-scanning microplate cytometry (Acumen, TTP Labtech) where miniaturization of the assay to a 1,536-well plate format was possible. References: Bowen, W. P.; Wylie, P. G. Application of Laser-Scanning Fluorescence Microplate Cytometry in High Content Screening. Assay Drug Dev Technol 2006;4:209-221. Scaffidi P, Misteli T. Reversal of the cellular phenotype in the premature aging disease Hutchinson-Gilford progeria syndrome. Nat.
# NCGC Assay Protocol Summary: Reagents/Controls: Stable clones expressing DsRed2 and lamin A-EGFP were generated by Cell and Molecular Technologies in S3 HeLa cells. HeLa cells were prepared for the assay when they were 70-90% confluent. The cells were counted and resuspended in Opti-MEM I (no phenol red; Gibco), 2% FBS, 1% penicillin/ streptomycin (Gibco) at concentration of 120 cells/uL concentration. The suspension was passed through a Falcon basket filter with pore size 40um (Beckton Dickson). Control titrations: column […] 1536-well plate contained a sixteen point titration (1:2 dilutions) in duplicate of ancitabine (Sigma: A8598) beginning at 40 uM final concentration. Column 2 contained a sixteen point titration (1:2 dilutions) of cycloheximide beginning at 1.4 mM final concentration. Column 3 contained ancitabine at 40 uM and column 4 contained was the vehicle control (0.5% DMSO final concentration). Assay Steps: 5 uL of HeLa cells were plated in Aurora LoBase black clear bottom (cyclic-olefin polymer) 1536-well plates at a final density of 600 cells/well. Controls and library compounds were added with a 1536-well pin array using the Kalypsys pin-tool. The plates were then incubated for 48 hrs in a cell-culture incubator (37 °C; 5% CO2, 98% humidity). Following incubation the plates were read on the Acumen Explorer using the 488 nm laser. Data was collected on objects between 10 and 100 um in size. Cell objects were defined by a 15 um width x 10 um depth filter. The ratio of the total object intensity in PMT1 (500-530 nm emission; GFP) over PMT3 (575-640 nm emission; RFP) was calculated for analysis. Keywords: NIH Roadmap, MLSCN, MLI, MLSMR, qHTS, NCGC, lamin A, Progeria, RNA splicing.
# [1] = measured here: GFP splicing reporter channel
# [2] = measured here: RFP viability control channel
Structure (SMILES),AC50 [1],AC50 [2]
NC(=O)c1cc(NC(=O)c2cc(Br)c(Br)s2)cc(C(N)=O)c1,"8.91 µM [falling, partial curve]","5.01 µM [falling, partial curve]"
COc1ccc(CCNC(=O)Cn2nnc(-c3cccc(OC)c3OC)n2)cc1OC,,"25.1 µM [rising, single point]"
COc1ccccc1C(CC(=O)Nc1ccc(C)c(C)c1)c1ccc(OC(C)C)cc1 (stereo unspecified),,"17.8 µM [rising, partial curve]"
CC1CCN(S(=O)(=O)c2ccc(C(=O)Nc3nnc(-c4ccncc4)o3)cc2)CC1,"6.31 µM [falling, partial curve, poor fit]","0.00316 µM [falling, full curve, poor fit]"
CSCc1cc(N2CCOCC2)nc(SCc2ccc(Cl)c(Cl)c2)n1,"12.6 µM [rising, single point]",
Cc1cnc(NC(=O)C2(c3ccccc3)CC2)s1,,"0.0282 µM [rising, full curve, poor fit]"
C=C(C)COc1ccc2c(C)c(C)c(=O)oc2c1OCC(=C)C,"11.2 µM [rising, partial curve]","31.6 µM [rising, single point]"
COC(=O)C1=C(C)NC(C)=C(C(=O)OC)C1C1CC=CCC1 (stereo unspecified),,"35.5 µM [rising, single point]"
C#CCN(C)CC/C=C1\c2ccccc2CSc2ccccc21,"35.5 µM [rising, single point]",
CCOc1ccc(/C=C/C(=O)Nc2cccc(C(C)=O)c2)cc1,,"28.2 µM [rising, single point]"
COc1ccccc1N1CCN(C(c2ccc(Cl)cc2)c2nnnn2C(C)(C)C)CC1 (stereo unspecified),"12.6 µM [rising, partial curve]","20 µM [rising, single point]"
Cc1ccc2nc(NC(=O)c3cccc(-c4cc5ccccc5oc4=O)c3)sc2c1,"35.5 µM [falling, single point]","12.6 µM [falling, partial curve]"
Cc1ccc(-n2nnnc2SCn2nnc3ccccc3c2=O)cc1,,"12.6 µM [rising, single point]"
COc1ccc(S(=O)(=O)N2CCCCCC2)cc1NC(=O)Cc1cc(OC)c(OC)c(OC)c1,,"35.5 µM [rising, single point]"
CC(C)CN(CC(C)C)S(=O)(=O)c1ccc(C(=O)Nc2sc3c(c2C(N)=O)CC(C)(C)NC3(C)C)cc1,,"0.158 µM [falling, full curve]"
CC(=O)c1ccc(N2CCN(C(=O)C3(S(=O)(=O)c4ccc(Cl)cc4)CC3)CC2)cc1,,"11.2 µM [rising, single point]"
CC1CN(S(=O)(=O)c2ccc(NC(=O)c3cc(-c4ccccc4O)n[nH]3)cc2)CC(C)O1 (stereo unspecified),"8.91 µM [rising, partial curve, poor fit]","12.6 µM [rising, partial curve, poor fit]"
COc1ccc(/C=N/NC(=O)C2COc3ccccc3O2)cc1OC (stereo unspecified),"0.0708 µM [falling, full curve, poor fit]","0.0282 µM [falling, full curve, poor fit]"
Clc1ccc(OCCn2cnc3ccccc32)cc1,,"35.5 µM [rising, single point]"
CCN1CCS/C1=C/C=C/C1=[N+](CC)CCS1,"0.316 µM [rising, full curve]","2.24 µM [rising, full curve]"
COc1ccc(NC(=O)Cc2c(O)c3ccccc3[nH]c2=O)cc1,"3.98 µM [falling, full curve]","7.08 µM [falling, full curve, poor fit]"
CCOC(=O)/C(C#N)=C/Nc1ccccc1NS(=O)(=O)c1ccc(C)c(C)c1,,"35.5 µM [falling, single point]"
COC(=O)c1cc(S(=O)(=O)C(C)C)c(S(C)=O)s1 (stereo unspecified),"3.98 µM [falling, partial curve]","12.6 µM [falling, single point]"
CCOc1ccccc1NC(=O)c1c(NCc2cccs2)sc2c1CCC(C)C2 (stereo unspecified),"2.82 µM [falling, single point]",
Cc1noc(C)c1-c1ccc2ncnc(N(C)Cc3ccco3)c2c1,"3.55 µM [falling, single point]",
Cc1nnc(NC(=O)CSc2nccn2Cc2ccc(F)cc2)s1,"0.355 µM [rising, full curve, poor fit]",

# Reprinted from above for reference:
Structure (SMILES),AC50 [1],AC50 [2]
CC(=O)c1ccc(N2CCN(C(=O)C3(S(=O)(=O)c4ccc(Cl)cc4)CC3)CC2)cc1,,"11.2 µM [rising, single point]"
CC1CN(S(=O)(=O)c2ccc(NC(=O)c3cc(-c4ccccc4O)n[nH]3)cc2)CC(C)O1 (stereo unspecified),"8.91 µM [rising, partial curve, poor fit]","12.6 µM [rising, partial curve, poor fit]"
COc1ccc(/C=N/NC(=O)C2COc3ccccc3O2)cc1OC (stereo unspecified),"0.0708 µM [falling, full curve, poor fit]","0.0282 µM [falling, full curve, poor fit]"

# Later entries

Structure (SMILES),AC50 [1],AC50 [2]
CCOC(=O)c1c(S(=O)(=O)N2CCCC(C(=O)Nc3ccccn3)C2)c(C)n(C)c1C (stereo unspecified),,"2.24 µM [falling, partial curve]"
CCCCCCC(=O)c1c(C)[nH]c(C(=O)OCC)c1C,"7.94 µM [rising, partial curve]","11.2 µM [rising, partial curve]"
COc1ccc(C)cc1NC(=O)C(Sc1nnc(-c2cccs2)o1)c1ccccc1 (stereo unspecified),"17.8 µM [rising, single point]","14.1 µM [rising, single point]"
S=c1[nH]nc(-c2ccccn2)n1/N=C/c1ccc(-c2ccccc2Cl)o1,"1.41 µM [falling, partial curve, poor fit]","31.6 µM [rising, single point]"
Cc1noc(C)c1-c1nccc(NCCN2CCOCC2)n1,"12.6 µM [falling, partial curve, poor fit]","20 µM [falling, single point]"
O=C(Nc1ccc(C(=O)N2CCOCC2)cc1)Nc1cccc(Cl)c1,,"11.2 µM [rising, partial curve, poor fit]"
CCOC(=O)C1CCN(C(=O)CN2c3ccc(CC)cc3-c3ccccc3S2(=O)=O)CC1,,"31.6 µM [falling, partial curve, poor fit]"
Cc1ccc(NC(=O)c2ccc(N3CCOCC3)c([N+](=O)[O-])c2)cc1S(=O)(=O)N1CCOCC1,"17.8 µM [rising, single point]","35.5 µM [rising, single point]"
COc1cc(/C=N/NC(=O)C2CCN(CC(O)COCc3ccccc3)CC2)ccc1O (stereo unspecified),,"0.00447 µM [rising, full curve, poor fit]"
Cc1cc(C)n(C(=O)CNc2ccc(C)c(C)c2)n1,,"8.91 µM [rising, partial curve, poor fit]"
O=C(COc1ncnc2ccccc12)NCCc1ccc(F)cc1,,"0.0355 µM [falling, full curve, poor fit]"
CC(=O)OCC(=O)[C@@]1(O)CC[C@@H]2[C@H]3CCC4=CC(=O)C=C[C@]4(C)[C@]3(F)[C@@H](O)C[C@@]21C,"0.000891 µM [rising, full curve, poor fit]","0.0316 µM [falling, full curve, poor fit]"
Cc1cc(OI)c(C(C)C)cc1-c1cc(C(C)C)c(OI)cc1C,"0.631 µM [falling, full curve]","0.0178 µM [falling, full curve, poor fit]"
C=C1C(=O)[C@@]23[C@H](O)C[C@@H]4C(C)(C)CC[C@H](O)[C@@]4(C)[C@@H]2CC[C@@H]1[C@H]3O,,"35.5 µM [falling, single point]"
CCC(=O)/C(=C(/O)c1ccccc1)c1nc2ccccc2[nH]1,"0.501 µM [rising, full curve, poor fit]","3.55 µM [rising, partial curve]"
CN(C)/C=C/C(=O)c1ncc(C(F)(F)F)cc1Cl,"35.5 µM [falling, single point]",
CC(=O)N1CCC(N2CCN(Cc3ccc(C)cc3)C(CCO)C2)CC1 (stereo unspecified),"2.51 µM [rising, partial curve]",
O=C1c2cccc3cccc(c23)C(=O)N1CCN1CCN(CC(O)COCc2ccc(Cl)cc2)CC1 (stereo unspecified),"31.6 µM [rising, single point]","31.6 µM [rising, single point]"
CN(C)C(=O)c1ccc(-c2nc(N(C)Cc3ccco3)c3ccccc3n2)cc1,"5.01 µM [rising, full curve]","28.2 µM [rising, single point]"
CCOC(=O)C1(Cc2ccccc2)CCCN(Cc2cccc(C(C)=O)c2)C1 (stereo unspecified),"17.8 µM [falling, partial curve, poor fit]","14.1 µM [falling, partial curve]"
Cn1c(=O)c(NCCc2ccccc2)c2c3c(cccc31)C(=O)c1ccccc1-2,"15.8 µM [falling, partial curve]","11.2 µM [falling, partial curve]"
Cc1cccc(CNc2cc(-c3ccccc3CN(C)C)ncn2)c1,,"31.6 µM [rising, single point]"
CC(=O)c1ccc(Nc2cc(C)nc3ccc(C)cc23)cc1,"14.1 µM [falling, single point]","25.1 µM [falling, single point]"
Cc1ccc(S(=O)(=O)Nc2ccccc2/C=N/c2nc3ccccc3n2C(C)C)cc1,,"1.12 µM [rising, partial curve]"
N=C(N=C(N)N)N1CCOCC1,"0.0355 µM [falling, full curve, poor fit]","0.0562 µM [falling, full curve]"
COc1cccc(C(=O)N/N=C/C(Br)=C/c2ccccc2)c1,,"17.8 µM [falling, partial curve, poor fit]"

# One compound at a time, as listed above:
# C#CCN(C)CC/C=C1\c2ccccc2CSc2ccccc21 is listed as AC50 [1]: 35.5 µM [rising, single point]
# Clc1ccc(OCCn2cnc3ccccc32)cc1 is listed as AC50 [2]: 35.5 µM [rising, single point]
